Assay results reported in PMC12040169 (PLOS Biology, 2025).
The other results are listed elsewhere or left out.

System: T1, CTL2-GFP (C. trachomatis L2/434/Bu, GFP-expressing)
T1 construct: L2/434/Bu, GFP-expressing
Design: species or system HeLa; Intracellular C. trachomatis growth in HeLa cells, bulk GFP fluorescence relative to DMSO
Conditions: bulk GFP, single well; 28.5 h, 10 µM; inhibitor

SMILES	% of control remaining [%]
Cc1cc(C)n(CCNCc2cc(-c3ccccc3)c[nH]c2=O)n1 [CBK284770]	64.34
COCCn1c(CO)nnc1[C@H]1C[C@@H](NC(=O)c2ncc(F)cc2F)C1 [CBK307458]	149.674
CC(NC(=O)Cc1cccc(F)c1)c1nnc2n1CCCCC2 (centres unmarked) [CBK305975]	132.555
Cc1cn([C@H]2C[C@@H](O)[C@@H](CN)O2)c(=O)[nH]c1=O [CBK201315]	128.138
O=C(CCCn1ccnc1)Nc1ccc(N2CCCCC2)c(F)c1 [CBK281385]	165.209
COCCOC(=O)N1CCC(C(=O)NC(c2ccccc2)c2ccsc2)CC1 (centres unmarked) [CBK060155]	162.331
Oc1c(CN2CCN(c3ccc(F)cc3)CC2)cc(Br)c2cccnc12 [CBK268051]	26.152
N#Cc1cccc(NC(=O)c2cccs2)c1 [CBK066855]	102.74
CN(C)CCN(Cc1ccccc1)Cc1c(F)cccc1Cl [CBK261867]	100.977
OCc1cccc(-c2cncc(Nc3ccccc3)n2)c1 [CBK065576]	157.91
CCOc1ccc(NC(=O)N(CCOC)Cc2cnn(C)c2)cc1Cl [CBK306697]	141.079
O=C(O)CSc1c[nH]c2ccccc12 [CBK026377]	109.939
CC(c1cccc(F)c1)n1cc(C(=O)NCCc2ccco2)nn1 (centres unmarked) [CBK283582]	111.743
c1ccc(CCN2CCCN(c3ccnc(OCCN4CCOCC4)n3)CC2)cc1 [CBK083810]	169.05
COC(=O)[C@@H]1Cc2ncn(C(C)C)c2CN1C(=O)c1ccc(F)cc1 [CBK288990]	137.076
CC(=O)Nc1cccc(-c2cc(N3CCN(CC(=O)N(C)c4ccccc4)CC3)ncn2)c1 [CBK091134]	250.607
CCc1nccn1CCCNC(=O)Nc1cc(-c2cccnc2)nn1C [CBK306657]	107.699
O=C(NCc1ccc2c(c1)OCO2)N1CCCC(CO)C1 (centres unmarked) [CBK156034]	163.203
Cc1nc2cc(C(=O)O)ccc2[nH]1 [CBK220035]	111.438
COc1ccc(-c2nc(NC(=O)C3CC3)cnc2-c2cccc(C(F)(F)F)c2)cc1 [CBK036852]	172.689
CSCCCNC(=O)N1CCN(c2cc(C(F)(F)F)ccn2)CC1 [CBK156433]	103.677
COCCNc1nccnc1-c1cccc(C(=O)N2CCN(C)CC2)c1 [CBK036864]	115.019
Cc1csc(N2CCC(Nc3cc(CO)ccc3Cl)CC2)n1 [CBK306440]	117.892
Oc1ccc(Nc2nc3nonc3nc2Nc2ccccc2)cc1 [CBK263551]	48.2375
CCOC(=O)Cn1c(CN2CCC(Cc3ccccc3)CC2)nc2c1c(=O)n(C)c(=O)n2C [CBK269454]	160.817

SMILES	% of control remaining [%]
Cc1cc(NC(=O)CN2CCN(c3ccccc3)CC2)c2ccccc2n1 [CBK278322G]	87.9635
Cc1cccc(Cc2cccc(C3CCCN(C(=O)c4ccc(=O)[nH]c4)C3)n2)c1 (centres unmarked) [CBK286243]	140.687
Cc1nc(-c2ccsc2)sc1C(=O)NC1CCCN(c2ncccn2)C1 (centres unmarked) [CBK305632]	90.0305
O=C(c1ccco1)N1CCc2c([nH]c3ccccc23)C12CCN(Cc1ccccc1)CC2 [CBK286313]	132.315
C[C@@H]1[C@H]2C[C@@H](C[C@H]1NC1=NC(=O)C(CC(=O)O)S1)C2(C)C (some centres unmarked) [CBK059514]	128.286
COc1ccc(OC)c(NC(=O)CN2CCN(c3ccccn3)CC2)c1 [CBK262978]	116.725
Cc1csc2ncc(C(=O)NCc3ccc4c(c3)OCO4)c(=O)n12 [CBK287292]	89.2669
COc1cccc(NC(=O)CSCc2n[nH]c(=O)[nH]2)c1 [CBK266058]	117.433
CC(C)C(=O)N1C[C@@H](N(C)C)[C@H](c2cn(C)c3ccccc23)C1 [CBK282717]	148.296
O=C(O)CCCCc1nn(-c2ccc(Cl)c(Cl)c2)c2c1CCC2 [CBK012529]	141.793
COc1ccc([C@H]2CN(Cc3ccccc3)[C@@H]3CCN(C(=O)Cc4ccsc4)C[C@H]23)cc1 [CBK285551]	49.9145
COCCCOc1nc2ccccc2nc1NC(C)C [CBK115737]	108.806
CC(Oc1ccc(Cl)cc1Cl)C(=O)Nc1ccc(N2CCN(C)CC2)cc1 (centres unmarked) [CBK266780]	162.104
CC(Cn1cccn1)NC(=O)N1CCN(Cc2ccc(F)cc2)CC1 (centres unmarked) [CBK306948]	115.33
COc1ccc(C2C(C(=O)c3ccco3)=C(O)C(=O)N2CCN2CCOCC2)cc1OC (centres unmarked) [CBK264544]	119.084
CN1CCN(CCCNC(=O)N(CCC#N)C2CCCCC2)CC1 [CBK156346]	134.117
CC(C)(C)c1csc(NC(=O)C2CC(=O)N(Cc3cccs3)C2)n1 (centres unmarked) [CBK175547]	130.455
CCNC(=O)[C@H]1CC[C@]2(CC1)CNC(=O)c1cc(Cl)ccc1O2 [CBK284890]	138.578
O=c1ccc2ccc(-c3cccc(C(F)(F)F)c3)nc2[nH]1 [CBK073717]	135.911
O=C(Nc1ccc2cc(Br)cnc2n1)c1ccccc1[N+](=O)[O-] [CBK063253]	122.209
CCCn1c(SCC(=O)Nc2scc(CC(C)C)c2C(=O)OCC)n[nH]c1=O [CBK295615]	112.842
FC(F)(F)Oc1ccc(-c2cc(Nc3ccc(N4CCOCC4)cc3)ncn2)cc1 [CBK090934]	239.065
CCCN1CC2(CCN(Cc3nccn3C)CC2)CC1C(=O)O (centres unmarked) [CBK307658]	133.647
O=C(CSC1c2ccccc2Oc2ccccc21)Nc1ccccc1C(=O)O [CBK266499]	155.811
COC(=O)c1cc(C)sc1NC(=S)Nc1ccn(Cc2ccc(Br)cc2)n1 [CBK266934]	141.954
